Values of other authors, collected in patent US20170071839A1, “Personal care and medicinal products incorporating organosulfur groups” (priority 2015, published 2017).
“Also recorded” adds a separate entry of the source.

Settings: in the presence of cysteine

| Structure (SMILES) | Reaction with Cysteine Product (moles) |
| --- | --- |
| C=CCS [AllylSH, AllylThiol] | SAMC (0.8) |
| C=CCSSCC=C [DADS, Diallyl Disulfide] | AllylSH (1); also recorded: SAMC (1), |
